Some entries share one result that the patent states for a list of compounds.
Tests used:
[1] = test system: histone deacetylase (HDAC); experiment: HDAC inhibition assay (Fluor de Lys fluorescent assay, HeLa lysate); assay type: biochemical; settings: at the concentration of 10^−5 M or even lower
Method: The histone deacetylase (HDAC) activity was measured in HeLa lysate suspensions using a Fluor de Lys™ fluorescent assay system (Biomol, Enzo Life Sciences; PA, USA) with some modification as described previously (Pflum et al., 2007). In brief, HeLa lysate (1.5 μl) were preincubated in the presence of test compound or vehicle (DMSO, 0.2% v/v) at 30° C. for 10 minutes, therefore Fluor de Lys™ substrate (125 μM) was added and incubated at 37° C. under shaking for 45 minutes. Finally, the developer reagent (95 μl, 1×) was immediately added to the same aliquot of the reaction mixture for another 10 minutes. The extent of deacetylated substrate formation was monitored by a microplate fluorescence reader (Thermo Varioskan Flash, Thermofisher; MA, USA) to determine the fluorescence intensity (excitation at 360 nm, emission at 460 nm). The results were expressed as the percent inhibition of the rate of deacetylated substrate formation on the reacting interval. […] See Bieliauskas et al., Bioorg. Med. Chem. Lett., 2007, 17: 2216-2219.

[2] = test system: acetyl-H3 protein; experiment: In vitro acetyl-H3 protein expression (Western blot); assay type: cell-based; settings: IMR90 cells

Row | SMILES | HDAC inhibitory activity [1] | acetyl-H3 protein induction [2]
1 | CC(C)(C(=O)NO)C(O)Cc1ccccc1 (stereo not shown) [Compound 2, N,3-dihydroxy-2,2-dimethyl-4-phenylbutanamide] | showed HDAC inhibitory activities | promoted acetyl-H3 protein induction
2 | CC(C)(C)OC(=O)N[C@H](Cc1ccc(OCc2ccccc2)cn1)C(=O)Nc1ccc(CCCC(=O)NO)cc1 [Compound 3, (R)-tert-butyl 3-(5-(benzyloxy)pyridin-2-yl)-1-(4-(4-(hydroxylamino)-4-oxobutyl)phenylamino)-1-oxopropan-2-ylcarbamate] | showed HDAC inhibitory activities | promoted acetyl-H3 protein induction
